Laboratory results reported in PMC9985596.
Results are given in words; binding and its absence hold for the method and conditions named. Binding seen in cells or lysates may run through a third protein. A yes stands for co-enrichment or nearness to the bait. Other partners may have been found. Sequences can lack the tags named with a protein.

Protein sequences, listed by entry. Tags and fused reporters are not part of them.
UniProt P53396: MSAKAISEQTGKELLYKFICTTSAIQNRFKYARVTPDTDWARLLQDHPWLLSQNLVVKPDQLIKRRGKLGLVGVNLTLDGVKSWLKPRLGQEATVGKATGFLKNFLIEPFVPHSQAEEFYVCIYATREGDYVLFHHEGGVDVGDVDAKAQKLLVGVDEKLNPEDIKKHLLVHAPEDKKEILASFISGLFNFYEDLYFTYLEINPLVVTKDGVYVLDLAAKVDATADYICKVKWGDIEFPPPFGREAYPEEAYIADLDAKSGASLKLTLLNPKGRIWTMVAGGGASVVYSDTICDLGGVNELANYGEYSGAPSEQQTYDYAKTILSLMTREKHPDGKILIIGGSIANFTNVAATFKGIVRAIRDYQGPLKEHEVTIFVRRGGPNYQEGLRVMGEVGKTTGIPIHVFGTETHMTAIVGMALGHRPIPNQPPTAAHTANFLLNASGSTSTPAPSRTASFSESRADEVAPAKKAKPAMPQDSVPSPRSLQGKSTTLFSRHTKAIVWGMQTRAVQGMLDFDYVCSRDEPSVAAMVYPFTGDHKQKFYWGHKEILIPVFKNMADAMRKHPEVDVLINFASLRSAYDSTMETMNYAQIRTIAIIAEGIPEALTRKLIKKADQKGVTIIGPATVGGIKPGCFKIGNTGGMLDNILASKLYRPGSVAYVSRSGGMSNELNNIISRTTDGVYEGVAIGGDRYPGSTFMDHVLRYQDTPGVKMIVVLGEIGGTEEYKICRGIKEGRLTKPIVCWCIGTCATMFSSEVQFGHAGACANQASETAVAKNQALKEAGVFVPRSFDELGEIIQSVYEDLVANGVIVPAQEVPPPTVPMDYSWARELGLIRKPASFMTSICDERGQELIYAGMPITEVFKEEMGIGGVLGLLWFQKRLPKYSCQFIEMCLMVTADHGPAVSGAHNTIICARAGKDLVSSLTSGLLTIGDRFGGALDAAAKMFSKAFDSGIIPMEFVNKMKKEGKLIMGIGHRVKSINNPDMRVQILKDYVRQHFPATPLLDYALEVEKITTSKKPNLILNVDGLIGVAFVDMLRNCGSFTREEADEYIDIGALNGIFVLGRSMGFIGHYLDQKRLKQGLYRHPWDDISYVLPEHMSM
UniProt O43684: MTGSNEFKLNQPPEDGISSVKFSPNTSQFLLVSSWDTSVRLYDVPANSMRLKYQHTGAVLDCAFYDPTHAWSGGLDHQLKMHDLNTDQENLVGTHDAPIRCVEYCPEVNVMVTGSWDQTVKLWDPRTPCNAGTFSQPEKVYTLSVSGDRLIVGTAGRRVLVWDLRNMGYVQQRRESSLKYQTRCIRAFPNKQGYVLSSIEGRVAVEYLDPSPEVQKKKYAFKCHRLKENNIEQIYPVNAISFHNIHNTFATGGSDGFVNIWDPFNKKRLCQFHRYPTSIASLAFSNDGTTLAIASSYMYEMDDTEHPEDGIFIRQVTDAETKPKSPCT
UniProt P22314: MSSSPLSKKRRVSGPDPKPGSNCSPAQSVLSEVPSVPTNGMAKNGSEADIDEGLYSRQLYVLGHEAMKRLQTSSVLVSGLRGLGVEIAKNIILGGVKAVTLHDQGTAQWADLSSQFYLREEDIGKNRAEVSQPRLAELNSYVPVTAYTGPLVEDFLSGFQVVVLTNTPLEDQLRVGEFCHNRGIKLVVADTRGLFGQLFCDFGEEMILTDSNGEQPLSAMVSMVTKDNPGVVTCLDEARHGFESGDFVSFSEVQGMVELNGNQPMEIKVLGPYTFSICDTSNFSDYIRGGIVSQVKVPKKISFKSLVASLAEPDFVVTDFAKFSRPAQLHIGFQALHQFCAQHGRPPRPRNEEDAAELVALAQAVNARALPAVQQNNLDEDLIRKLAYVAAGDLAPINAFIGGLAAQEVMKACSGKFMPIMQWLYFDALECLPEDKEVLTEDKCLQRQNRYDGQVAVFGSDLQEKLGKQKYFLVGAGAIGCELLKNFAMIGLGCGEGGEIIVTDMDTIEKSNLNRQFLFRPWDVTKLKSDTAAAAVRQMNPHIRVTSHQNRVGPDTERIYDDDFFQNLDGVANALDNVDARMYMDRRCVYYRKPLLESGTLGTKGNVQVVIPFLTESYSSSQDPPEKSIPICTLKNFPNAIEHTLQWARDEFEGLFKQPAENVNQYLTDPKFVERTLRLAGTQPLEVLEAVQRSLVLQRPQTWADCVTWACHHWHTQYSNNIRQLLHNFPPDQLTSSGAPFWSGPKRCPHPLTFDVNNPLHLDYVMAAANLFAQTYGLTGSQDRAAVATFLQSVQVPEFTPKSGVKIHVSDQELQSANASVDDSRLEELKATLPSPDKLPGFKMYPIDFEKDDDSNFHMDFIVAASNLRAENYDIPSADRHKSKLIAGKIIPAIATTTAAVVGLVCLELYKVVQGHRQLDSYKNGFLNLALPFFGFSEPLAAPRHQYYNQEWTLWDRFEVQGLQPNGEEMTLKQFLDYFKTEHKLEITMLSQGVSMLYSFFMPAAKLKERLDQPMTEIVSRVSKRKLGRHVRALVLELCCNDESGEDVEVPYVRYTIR

Each substance was assayed against T1, FLAG-tagged RECQ4 wild type (human) (UniProt O94761) (assay: affinity purification with mass spectrometry; FLAG-RECQ4 WT or Q757X immunopurified on anti-FLAG M2 agarose from benzonase-solubilised chromatin-bound (CB) fractions of stable RECQ4 KD HEK293 cells; overnight at 4 C; washes with 0.3 M NaCl, 0.2% Triton X-100; n = 1).
T1 sequence: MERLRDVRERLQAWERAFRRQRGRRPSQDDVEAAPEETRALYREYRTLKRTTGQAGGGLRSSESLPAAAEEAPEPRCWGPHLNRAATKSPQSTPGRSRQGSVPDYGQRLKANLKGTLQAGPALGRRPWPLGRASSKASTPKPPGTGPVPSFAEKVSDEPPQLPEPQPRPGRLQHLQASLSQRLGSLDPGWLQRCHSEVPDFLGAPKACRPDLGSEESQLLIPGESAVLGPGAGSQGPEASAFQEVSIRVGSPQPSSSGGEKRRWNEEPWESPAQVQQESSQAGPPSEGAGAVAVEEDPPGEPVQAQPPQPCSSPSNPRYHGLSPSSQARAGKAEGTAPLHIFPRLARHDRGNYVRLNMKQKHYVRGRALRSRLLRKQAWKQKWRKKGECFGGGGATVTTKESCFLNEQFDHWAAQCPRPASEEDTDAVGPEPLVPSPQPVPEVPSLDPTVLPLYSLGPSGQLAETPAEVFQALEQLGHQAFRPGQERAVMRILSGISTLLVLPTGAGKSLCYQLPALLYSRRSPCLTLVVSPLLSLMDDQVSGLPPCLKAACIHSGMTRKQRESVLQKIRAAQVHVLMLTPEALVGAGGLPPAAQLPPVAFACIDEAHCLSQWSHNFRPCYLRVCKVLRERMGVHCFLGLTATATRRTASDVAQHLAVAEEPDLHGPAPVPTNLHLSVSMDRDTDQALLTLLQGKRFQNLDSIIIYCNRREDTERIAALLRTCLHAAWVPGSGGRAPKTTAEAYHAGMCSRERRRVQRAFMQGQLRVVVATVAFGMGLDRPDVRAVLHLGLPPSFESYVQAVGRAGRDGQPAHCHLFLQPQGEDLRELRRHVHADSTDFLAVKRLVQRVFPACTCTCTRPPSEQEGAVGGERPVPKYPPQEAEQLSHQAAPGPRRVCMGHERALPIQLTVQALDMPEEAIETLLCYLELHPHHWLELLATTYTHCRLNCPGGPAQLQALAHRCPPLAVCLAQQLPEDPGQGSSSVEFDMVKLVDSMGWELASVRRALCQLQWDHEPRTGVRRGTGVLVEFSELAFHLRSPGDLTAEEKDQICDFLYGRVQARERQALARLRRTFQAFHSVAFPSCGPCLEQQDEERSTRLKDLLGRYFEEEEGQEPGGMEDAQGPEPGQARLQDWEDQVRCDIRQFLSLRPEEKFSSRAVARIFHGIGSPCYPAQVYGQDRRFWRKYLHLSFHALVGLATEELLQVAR

binding, binds:
ATP citrate lyase (ACLY) (from UniProt P53396 1-1101) (enzyme), mitotic checkpoint protein BUB3 (from UniProt O43684 1-328), ubiquitin-activating enzyme E1 homolog A (UBA1) (from UniProt P22314 1-1058)
